Numbering of substitutions follows the chain as printed. In names and notes the source's numbering stands. No constants are given. Whether binding was seen depends on the method and setting. Binding seen in cells or lysates may run through a third protein. Some entries that bind do so weakly or less than the wild type. Sequences can lack the tags named with a protein. One block for each binder: values may come before it.
Tests used:
[1] = target: T1, glutamylated rGST-DNAJC7 (UniProt Q99615); assay: pull-down; GST-DNAJC7 incubated with lysates from Myc-tagged CCP6-wt and Myc-tagged CCP6-mut 293T cells; repeated three times; only the target purified
T1 sequence (chain, glutamylated (sites and how it was glutamylated not stated)): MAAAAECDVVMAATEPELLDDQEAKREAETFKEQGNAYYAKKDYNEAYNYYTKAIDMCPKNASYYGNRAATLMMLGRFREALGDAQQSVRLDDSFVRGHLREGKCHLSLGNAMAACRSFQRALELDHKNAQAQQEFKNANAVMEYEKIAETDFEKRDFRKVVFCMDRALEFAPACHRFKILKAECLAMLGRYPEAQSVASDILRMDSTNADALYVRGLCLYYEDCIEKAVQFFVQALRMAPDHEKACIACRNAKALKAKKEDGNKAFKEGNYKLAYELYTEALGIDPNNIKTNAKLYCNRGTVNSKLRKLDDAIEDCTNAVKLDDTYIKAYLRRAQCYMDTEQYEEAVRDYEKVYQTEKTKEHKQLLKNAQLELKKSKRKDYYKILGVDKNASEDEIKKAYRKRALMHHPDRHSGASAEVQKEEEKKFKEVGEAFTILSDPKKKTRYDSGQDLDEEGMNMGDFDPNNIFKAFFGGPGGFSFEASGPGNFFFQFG

[2] = target: T2, DNAJC7 cotransfected in 293T cells (UniProt Q99615); assay: co-IP; CCP6-mut and DNAJC7 cotransfected in 293T cells; data not shown
T2 sequence: T1 sequence (chain, glutamylated (sites and how it was glutamylated not stated))

- binding [1]: binds
- binding [2]: binds
B1: Myc-tagged CCP6-mut (H230S/E233Q) in 293T cells (enzyme, UniProt Q5VU57 1-503)
chain: MAEGSQSAPEAGNDMGNDDAIGGNVSKYIVLPTGYCGQPKKGHLIFDACFESGNLGRVDQVSEFEYDLFIRPDTCNPRFRVWFNFTVENVKESQRVIFNIVNFSKTKSLYRDGMAPMVKSTSRPKWQRLPPKNVYYYRCPDHRKNYVMSFAFCFDREEDIYQFAYCYPYTYTRFQHYLDSLQKRNMDYFFREQLGQSVQQRKLDLLTITSPDNLREGAEQKVVFITGRVSPGQTPSSFVCQGIIDFLVSQHPIACVLREYLVFKIAPMLNPDGVYLGNYRCSLMGFDLNRHWLDPSPWVHPTLHGVKQLIVQMYNDPKTSLEFYIDIHAHSTMMNGFMYGNIFEDEERFQRQAIFPKLLCQNAEDFSYSSTSFNRDAVKAGTGRRFLGGLLDHTSYCYTLEVSFYSYIISGTTAAVPYTEEAYMKLGRNVARTFLDYYRLNPVVEKVAIPMPRLRNKEIEVQRRKEKSPPYKHPLLRGPASNYPNSKGDKKSSVNHKDPSTPF

- binding [1]: binds
B2: Myc-tagged CCP6-wt in 293T cells (enzyme, UniProt Q5VU57 1-503)
chain: B1 chain with S230H, Q233E

— article PMC5008367
